Measured values published in patent publication US11708391B2, “Rapaglutins, novel inhibitors of GLUT and use thereof” (The Johns Hopkins University, priority 2016, dated 2023).
Some entries share one result that the patent states for a list of compounds.

Legend:
HEK293T = assay: alamar blue assay, HEK293T; format: cell-based; conditions: HEK293T or HeLa cells, glucose 4 g/L compared to 1 g/L
From the text: Dose-dependent inhibition of cell proliferation by A18 and E11 was next evaluated in several other human cancer cell lines, including breast cancer HCC1954, pancreatic cancer PANC10.05, leukemia Jurkat T and colon cancer RKO (FIGS. 1b and 1c). […] (FIGS. 1 and 9; Table 3)
Up to now, at least 14 different isoforms of GLUTs have been identified in human cells. It was then asked whether A18 and E11 are specific inhibitors of GLUT1. To answer this question, colon cancer DLD-1 wild type and GLUT1 gene knock out cell lines were chosen as a cell model (FIG. 4a). […] GLUTs that are most relevant to cancer are Glut1 and Glut3. To obtain additional evidence, Glut1 and Glut3 in HEK 293T cells were overexpressed and an alamar blue cell viability assay was performed again. […] (see FIGS. 4, 19, 20, 26; Table 4).

glucose transporters = system: T1, glucose transporters; assay: 2-deoxy-D-[3H] glucose uptake in A549 cells; format: cell-based, human
T1 construct: IC50 uptake of 3H-labeled 3-O-methylglucose; other: A549 cells; compared with 3-O-methylglucose uptake; other: A549 cells treated with drugs for 1 min; other: A549 cells, glucose uptake assay; other
Procedure: FIGS. 2A-2D. Inhibition of Glucose Transport by A18 and E11. (a) Inhibition of 3-O-methyl¬D-[3H] glucose uptake in A549 cells by A18. (b) Inhibition of 3-O-methyl-D-[3H] glucose uptake in A549 cells by E11. (c) Inhibition of 2-deoxy-D-[3H] glucose uptake in A549 […] cells by A18. (d) Inhibition of 2-deoxy-D-[3H] glucose uptake in A549 cells by E11.
FIGS. 16A-16B. Inhibition of Glucose Transport by A18 and E11. Cytochalasin B (10 μM), A18 (3 μM), E11 (3 μM) and DMSO control were used to treated A549 cells for 10 min (a) or 1 min (b), then glucose uptake in the treated cells was measured at 1, 3, 10 and 30 min after the addition of 2-dexoy-D-[^3H] glucose.
Direct action on glucose transporters was measured by monitoring uptake of 3H-labeled 3-O-methylglucose, which is transported by glucose transporters but not metabolized further, allowing the assessment of initial rate of glucose uptake. […] Initial uptake can also be assessed by measuring the uptake of 3H-labeled 2-deoxy-D-glucose, which gets into the cell through glucose transporters and is phosphorylated by hexokinase but cannot be metabolized further due to the lack of oxygen at the second position.

| Compound | increase of IC50 in high versus low concentration of glucose (HEK293T) | time to inhibition of glucose transport after the assay started (glucose transporters) |
| --- | --- | --- |
| Gly-^MSerBu-Nal-^MAla [E11] | 2-3 fold | ≤ 1 min |
| CC[C@@H](C)[C@H]1C(=O)NCC(=O)N(C)CC/C=C/C(=O)OCC(C)(C)C(=O)C(=O)N2CCCC[C@H]2C(=O)O[C@H](CCc2ccc(OC)c(OC)c2)c2cccc(c2)NC(=O)CCC(=O)N(C)[C@@H](CC(C)C)C(=O)N[C@H](Cc2ccccc2)C(=O)N1C [A18] | 2-3 fold |  |
